The supplement of paper PMC10011410
These are raw signals, not scaled to a control.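 Values average three technical replicates, each on its own plate. On all plates, reagent-free control wells corrected for intrinsic cell fluorescence and DMSO-treated wells acted as vehicle controls. No hit or active cutoff is set for these live-cell readings.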

What was measured:
U-2 OS [1] = assay: AUC of caspase 3/7-positive object count (AUC (object count x time)); higher = more apoptotic or dead cells
Protocol: (§1)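 Live-cell Incucyte imaging of U-2 OS cells with Caspase-3/7 Green and Cytotox Red reagents. Compounds were tested mostly at 5, 10 and 20 uM, and cells were imaged every 4 h for up to 60 h. Value is the area under the curve of positive object counts over time, per channel: green = caspase 3/7, red = membrane-compromised, overlap = both.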

U-2 OS [2] = assay: AUC of Cytotox red (membrane-compromised) object count (AUC (object count x time)); higher = more apoptotic or dead cells
Protocol: as §1

SMILES	AUC of caspase 3/7-positive object count (U-2 OS [1]; 5 µM)	AUC of caspase 3/7-positive object count (U-2 OS [1]; 10 µM)	AUC of caspase 3/7-positive object count (U-2 OS [1]; 20 µM)	AUC of Cytotox red (U-2 OS [2]; 5 µM)	AUC of Cytotox red (U-2 OS [2]; 10 µM)	AUC of Cytotox red (U-2 OS [2]; 20 µM)	AUC of caspase 3/7-positive object count (U-2 OS [1]; 40 µM)	AUC of caspase 3/7-positive object count (U-2 OS [1]; 80 µM)	AUC of Cytotox red (U-2 OS [2]; 40 µM)	AUC of Cytotox red (U-2 OS [2]; 80 µM)	AUC of caspase 3/7-positive object count (U-2 OS [1]; 1.25 µM)	AUC of Cytotox red (U-2 OS [2]; 1.25 µM)
CC[C@]1(O)C[C@@H]2CN(CCc3c([nH]c4ccccc34)[C@@](C(=O)OC)(c3cc4c(cc3OC)N(C)[C@H]3[C@@](O)(C(=O)OC)[C@H](OC(C)=O)[C@]5(CC)C=CCN6CC[C@]43[C@@H]65)C2)C1	585	569	642	481	534	686						
ClC1=CC=C(C2=CSC(N/N=C3CCCC/3)=N2)C=C1							34.3	39.7	15	8.14		
C[C@H]1O[C@@H](O[C@H]2CC[C@@]3(C)[C@@H](CC[C@]4(C)[C@@H]3C=C[C@]35OC[C@@]6(CCC(C)(C)C[C@H]63)[C@@H](O)C[C@]54C)[C@]2(C)CO)[C@H](O)[C@@H](O[C@@H]2O[C@H](CO)[C@@H](O)[C@H](O)[C@H]2O)[C@H]1O	159	123	138	999	2050	1250						
CC(C)C[C@H](NC(=O)[C@H](Cc1ccccc1)NC(=O)c1cnccn1)B(O)O	1290	1180	1070	972	957	847						
O=NN(CCCl)C(=O)NC1CCCCC1	13.9	28.5	25.4	44.3	55.8	66						
Oc1cccc(O)c1O	36.1	14.2	35.6	35.3	15	-0.336						
O=c1cc(N2CCOCC2)oc2c(-c3ccccc3)cccc12	33.2	71.9	18.6	47.6	72.2	69.6						
Cn1c(=O)n(-c2ccc(C(C)(C)C#N)cc2)c2c3cc(-c4cnc5ccccc5c4)ccc3ncc21	82.6	112	175	64.7	74.4	178						
Cn1ncnc2c(=O)n(C)c(=O)nc1-2	746	687	556	1210	1100	753						
C/C(=C\c1csc(C)n1)[C@@H]1C[C@@H]2O[C@]2(C)CCC[C@H](C)[C@H](O)[C@@H](C)C(=O)C(C)(C)[C@@H](O)CC(=O)O1	266	285	285	226	256	300						
CN(C)/N=N/c1nc[nH]c1C(N)=O	20.2	10.5	18	42.1	42.3	77.7						
CCCCCOc1ccc(/C=C\c2cccc(O)c2C(=O)O)cc1	17.5	39.9	43.8	34.3	48.2	59.3	55.7	48.7	454	94.4		
CC1(C)CC[C@]2(C(=O)O[C@@H]3O[C@H](CO)[C@@H](O)[C@H](O)[C@H]3O)CC[C@]3(C)C(=CC[C@@H]4[C@@]5(C)CC[C@H](O[C@@H]6O[C@H](C(=O)O)[C@@H](O)[C@H](O)[C@H]6O[C@@H]6O[C@H](CO)[C@@H](O)[C@H](O)[C@H]6O)C(C)(C)[C@@H]5CC[C@]43C)[C@@H]2C1	48.9	41.5	49.7	30.9	38.5	52.2						
Cl.Cl.O=C(O)Cn1nnc(-c2ccc(CN(CCCCOc3ccc(CN4CCCC4)cc3)CCc3ccccc3)cc2)n1	40.9	46.5	65	25.5	28	50.9	448	635	1030	1340		
C[n+]1ccc(-c2cc[n+](CCCCCCCCCC[P+](c3ccccc3)(c3ccccc3)c3ccccc3)cc2)cc1.[I-].[I-].[I-]	47.9	40.8	117	72.5	51.1	154						
O=C(CBr)N1CC([N+](=O)[O-])([N+](=O)[O-])C1	49.2	34.3	29	51.3	48.7	57.4						
O=C(O[C@@H]1Cc2c(O)cc(O)cc2O[C@@H]1c1cc(O)c(O)c(O)c1)c1cc(O)c(O)c(O)c1	33.2	42.7	58.7	-1.11	-0.0286	-1.11	65.7	414	-0.529	-0.779		
O=C1/C(=C/c2ccc(O)c(Br)c2)CCC/C1=C\c1ccc(O)c(Br)c1	54.7			42.1								
O=NN(CCCl)C(=O)NCCCl	29.7	36.3	30.2	65.6	70.9	66						
COC(=O)[C@@]12OC[C@]34[C@H]([C@@H](O)[C@@H]1O)[C@@]1(C)CC(=O)C(O)=C(C)[C@@H]1C[C@H]3OC(=O)[C@H](OC(=O)CC(C)C)[C@@H]24	904	994	1190	668	954	1220						
Nc1ncn([C@H]2C[C@H](O)[C@@H](CO)O2)c(=O)n1	36.4	22.9	31.1	68.4	54.2	56.7						
CNC(=O)c1cc(Oc2ccc(NC(=O)Nc3ccc(Cl)c(C(F)(F)F)c3)cc2)ccn1	41.6	133	946	43.6	97.1	268						

SMILES	AUC of caspase 3/7-positive object count (U-2 OS [1]; 5 µM)	AUC of caspase 3/7-positive object count (U-2 OS [1]; 10 µM)	AUC of caspase 3/7-positive object count (U-2 OS [1]; 20 µM)	AUC of Cytotox red (U-2 OS [2]; 5 µM)	AUC of Cytotox red (U-2 OS [2]; 10 µM)	AUC of Cytotox red (U-2 OS [2]; 20 µM)	AUC of caspase 3/7-positive object count (U-2 OS [1]; 40 µM)	AUC of caspase 3/7-positive object count (U-2 OS [1]; 80 µM)	AUC of Cytotox red (U-2 OS [2]; 40 µM)	AUC of Cytotox red (U-2 OS [2]; 80 µM)	AUC of caspase 3/7-positive object count (U-2 OS [1]; 1.25 µM)	AUC of Cytotox red (U-2 OS [2]; 1.25 µM)
C=CC(=O)Nc1cc(Nc2nccc(-c3cn(C)c4ccccc34)n2)c(OC)cc1N(C)CCN(C)C	108	207	377	70.4	131	1020						
O=C(NNS(=O)(=O)c1ccccc1F)c1cc(F)cc(-c2ccccn2)c1	60	55.7	69.5	45.7	43.2	40.7						
O=[N+]([O-])c1c(Cl)cc(Cl)c2nsnc12	478	853	805	423	733	961						
CCC(=O)N1CCN(c2ccc(-n3c(=O)ccc4cnc5ccc(-c6cnc7ccccc7c6)cc5c43)cc2C(F)(F)F)CC1	99.2	81	156	53	44.9	84.1						
c1ccc(Nc2nc(-c3ccccc3)ns2)cc1	50.9	51.9	54.9	38.8	35.1	37.4						
CN1C(=O)[C@@]23C[C@]4([C@]56C[C@@]78SS[C@@](CO)(C(=O)N7[C@H]5Nc5ccccc56)N(C)C8=O)c5ccccc5N[C@@H]4N2C(=O)[C@]1(CO)SS3	909	771	839	1190	1440	1610						
COc1cc([C@@H]2c3cc4c(cc3[C@H](O)[C@H]3COC(=O)[C@H]23)OCO4)cc(OC)c1OC	439	477	586	489	509	613						
Oc1cc(O)cc(/C=C/c2ccc(O)c(O)c2)c1	48.6	49.8	37.2	25.3	17.6	9.05						
CNC(=O)Nc1ccc2c(c1)[C@@]1(CC2)OC(=O)N(CC(=O)N(Cc2ccc(F)cc2)[C@@H](C)C(F)(F)F)C1=O	49.8	41	35.6	33.5	24.5	28.9						
CC[C@@]1(O)C(=O)OCc2c1cc1n(c2=O)Cc2cc3ccccc3nc2-1	534		691	597		751					289	356
C#CC[C@H](c1nc2cc(Cl)ccc2c(=O)n1Nc1ccccc1)N(CCCN)C(=O)c1cccc(Cl)c1F	219	634	433	217	1350	1650						
CCN(CC)Cc1ccc2cc(COC(=O)Nc3ccc(C(=O)NO)cc3)ccc2c1.Cl	846	1130	1060	897	1170	1290						
C[C@H]1CCC/C=C/[C@@H]2C[C@H](O)C[C@H]2[C@H](O)/C=C/C(=O)O1	523	533	590	319	365	430						
C=CC(=O)Nc1cccc(Oc2nc(Nc3ccc(N4CCN(C)CC4)cc3OC)ncc2Cl)c1	56.6	226	91.8	36.3	323	1130						
O=C(OCC)/C(C(OCC)=O)=C\CCCCCCCCCCCCCC	57.1	67.5	60.1	35.7	37.6	25.1	36	56.7	23.8	49		
CC[C@H](C)[C@@H]1NC(=O)CNC(=O)[C@@H]2Cc3c([nH]c4cc(O)ccc34)S(=O)C[C@H](NC(=O)CNC1=O)C(=O)N[C@@H](CC(=O)O)C(=O)N1C[C@H](O)C[C@H]1C(=O)N[C@@H]([C@@H](C)[C@@H](O)CO)C(=O)N2 (stereo partly drawn)	407	504	444	307	408	437						
C=CC(=O)N1CCC[C@@H](n2nc(-c3ccc(Oc4ccccc4)cc3)c3c(N)ncnc32)C1	105	113	469	96.9	45.1	196						
O=C1C=CC(=O)N1c1ccccc1	461	822	1090	1370	1780	1500						
O=C(O)CCCc1ccc(N(CCCl)CCCl)cc1	42.7	33.6	106	59.2	55	158						
CC1(C)CCC2=C(O1)c1ccccc1C(=O)C2=O	100	610	415	59.7	643	578						
CO[C@H]1C[C@@H]2CC[C@@H](C)[C@@](O)(O2)C(=O)C(=O)N2CCCC[C@H]2C(=O)O[C@H]([C@H](C)C[C@@H]2CC[C@@H](O)[C@H](OC)C2)CC(=O)[C@H](C)/C=C(\C)[C@@H](O)[C@@H](OC)C(=O)[C@H](C)C[C@H](C)/C=C/C=C/C=C/1C	42.7	47	52.4	26.9	43.7	51.4						

Arranged by length of the SMILES (high to low): some entries from above
SMILES	AUC of caspase 3/7-positive object count (U-2 OS [1]; 5 µM)	AUC of caspase 3/7-positive object count (U-2 OS [1]; 10 µM)	AUC of caspase 3/7-positive object count (U-2 OS [1]; 20 µM)	AUC of Cytotox red (U-2 OS [2]; 5 µM)	AUC of Cytotox red (U-2 OS [2]; 10 µM)	AUC of Cytotox red (U-2 OS [2]; 20 µM)	AUC of caspase 3/7-positive object count (U-2 OS [1]; 40 µM)	AUC of caspase 3/7-positive object count (U-2 OS [1]; 80 µM)	AUC of Cytotox red (U-2 OS [2]; 40 µM)	AUC of Cytotox red (U-2 OS [2]; 80 µM)	AUC of caspase 3/7-positive object count (U-2 OS [1]; 1.25 µM)	AUC of Cytotox red (U-2 OS [2]; 1.25 µM)
CO[C@H]1C[C@@H]2CC[C@@H](C)[C@@](O)(O2)C(=O)C(=O)N2CCCC[C@H]2C(=O)O[C@H]([C@H](C)C[C@@H]2CC[C@@H](O)[C@H](OC)C2)CC(=O)[C@H](C)/C=C(\C)[C@@H](O)[C@@H](OC)C(=O)[C@H](C)C[C@H](C)/C=C/C=C/C=C/1C	42.7	47	52.4	26.9	43.7	51.4						
CNC(=O)Nc1ccc2c(c1)[C@@]1(CC2)OC(=O)N(CC(=O)N(Cc2ccc(F)cc2)[C@@H](C)C(F)(F)F)C1=O	49.8	41	35.6	33.5	24.5	28.9						
C=CC(=O)N1CCC[C@@H](n2nc(-c3ccc(Oc4ccccc4)cc3)c3c(N)ncnc32)C1	105	113	469	96.9	45.1	196						
